According to PMC4322367:
These are yes or no findings as the source states them, for the method shown. For some assays here: In cells and extracts the contact can be indirect. Some results given as binding are weak or reduced against the parent protein; the word gives no strength. For some assays here: Tags and fused reporters may be left off the sequences shown.

Amino acid sequences for entries named in this document (tags omitted).
UniProt Q96GD4: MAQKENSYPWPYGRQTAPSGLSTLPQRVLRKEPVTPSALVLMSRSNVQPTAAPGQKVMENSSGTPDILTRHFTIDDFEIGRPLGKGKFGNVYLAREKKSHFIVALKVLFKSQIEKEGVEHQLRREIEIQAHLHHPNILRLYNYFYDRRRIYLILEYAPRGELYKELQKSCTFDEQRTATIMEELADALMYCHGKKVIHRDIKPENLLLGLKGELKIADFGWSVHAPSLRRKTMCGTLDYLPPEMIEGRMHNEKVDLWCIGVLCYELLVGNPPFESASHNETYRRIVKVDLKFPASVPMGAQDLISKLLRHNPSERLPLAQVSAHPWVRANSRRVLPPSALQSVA

Columns and labels:
GST-Ataxin-10 (human) [1] = target: T1, GST-Ataxin-10 (human) (UniProt Q9UBB4); experiment: pull-down; bacterially purified GST-Ataxin-10 incubated with HA-Aurora B transfected in HeLa cells; only the target purified
T1 sequence: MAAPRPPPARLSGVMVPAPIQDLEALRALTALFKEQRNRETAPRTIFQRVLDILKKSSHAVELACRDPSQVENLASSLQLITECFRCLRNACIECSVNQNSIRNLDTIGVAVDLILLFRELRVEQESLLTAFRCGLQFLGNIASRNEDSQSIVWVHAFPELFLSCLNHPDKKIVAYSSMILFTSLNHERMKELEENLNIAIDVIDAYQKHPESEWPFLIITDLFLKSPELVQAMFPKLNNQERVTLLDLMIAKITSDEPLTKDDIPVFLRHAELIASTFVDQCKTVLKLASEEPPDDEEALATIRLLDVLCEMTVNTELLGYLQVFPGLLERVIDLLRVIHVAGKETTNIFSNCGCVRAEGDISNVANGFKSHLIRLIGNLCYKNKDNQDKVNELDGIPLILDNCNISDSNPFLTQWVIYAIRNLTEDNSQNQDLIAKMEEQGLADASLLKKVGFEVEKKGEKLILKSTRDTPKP

FLAG-Ataxin-10 (human) [2] = target: T2, FLAG-Ataxin-10 (human) (UniProt Q9UBB4); experiment: co-IP; HeLa cells transfected with FLAG-Ataxin-10 and HA-Aurora B; IP with anti-FLAG antibodies (Fig. 1B) and reciprocal IP (Fig. 1C); cells treated or untreated with nocodazole (100 ng/ml, 16 hours), with which the interaction weakened markedly
T2 sequence: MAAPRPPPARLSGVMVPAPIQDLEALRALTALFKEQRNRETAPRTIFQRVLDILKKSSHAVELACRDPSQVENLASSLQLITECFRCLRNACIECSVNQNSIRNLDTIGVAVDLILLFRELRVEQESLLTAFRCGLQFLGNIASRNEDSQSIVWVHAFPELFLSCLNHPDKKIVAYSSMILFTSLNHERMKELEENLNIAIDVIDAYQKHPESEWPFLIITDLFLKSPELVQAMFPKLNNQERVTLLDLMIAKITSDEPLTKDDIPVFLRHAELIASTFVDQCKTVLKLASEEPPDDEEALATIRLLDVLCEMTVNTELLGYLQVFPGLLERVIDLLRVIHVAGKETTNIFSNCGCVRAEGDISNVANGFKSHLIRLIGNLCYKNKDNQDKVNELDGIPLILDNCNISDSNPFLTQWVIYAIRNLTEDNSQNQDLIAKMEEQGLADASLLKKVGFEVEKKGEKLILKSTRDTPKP

FLAG-Ataxin-10 (human) [3] = target: T2, FLAG-Ataxin-10 (human); experiment: co-IP; HeLa cells transfected with FLAG-Ataxin-10-WT or FLAG-Ataxin-10-S12A together with HA-Plk1; blots quantified
GST-Ataxin-10 (human) [4] = target: T1, GST-Ataxin-10 (human); experiment: pull-down; GST-Ataxin-10 and His-Aurora B, both bacterially expressed, incubated together; GST pull-down; both purified
GST-Ataxin-10 (human) [5] = target: T1, GST-Ataxin-10 (human); experiment: pull-down; GST-Ataxin-10 or GST-Ataxin-10-S12A incubated with His-Plk1; GST pull-down; blots quantified
[6] = target: endogenous Aurora B (human (endogenous in HeLa)) (UniProt Q96GD4); experiment: co-IP; endogenous proteins; Aurora B immunoprecipitates blotted with anti-Ataxin-10 antibodies; IgG immunoprecipitates as negative controls
GST-Aurora B = GST-Aurora B (UniProt Q96GD4); experiment: pull-down; bacterially expressed, purified GST-Aurora B incubated with lysates from HeLa cells transfected with FLAG-Ataxin-10; only the target purified
HA-Aurora B = HA-Aurora B (UniProt Q96GD4); experiment: co-IP; HeLa cells transfected with FLAG-Ataxin-10 and HA-Aurora B; IP with anti-FLAG antibodies (Fig. 1B) and reciprocal IP (Fig. 1C); cells treated or untreated with nocodazole (100 ng/ml, 16 hours), with which the interaction weakened markedly

HA-Aurora B (from UniProt Q96GD4 1-344) (enzyme)
binding (GST-Ataxin-10 (human) [1]): binds | binding (FLAG-Ataxin-10 (human) [2]): binds

HA-Plk1 (from UniProt P53350 1-603) (enzyme)
binding (FLAG-Ataxin-10 (human) [3]): binds

His-Aurora B (from UniProt Q96GD4 1-344) (enzyme)
binding (GST-Ataxin-10 (human) [4]): binds

His-Plk1 (from UniProt P53350 1-603) (enzyme)
binding (GST-Ataxin-10 (human) [5]): binds

B1: endogenous Ataxin-10 (protein, UniProt Q9UBB4 1-475)
chain: MAAPRPPPARLSGVMVPAPIQDLEALRALTALFKEQRNRETAPRTIFQRVLDILKKSSHAVELACRDPSQVENLASSLQLITECFRCLRNACIECSVNQNSIRNLDTIGVAVDLILLFRELRVEQESLLTAFRCGLQFLGNIASRNEDSQSIVWVHAFPELFLSCLNHPDKKIVAYSSMILFTSLNHERMKELEENLNIAIDVIDAYQKHPESEWPFLIITDLFLKSPELVQAMFPKLNNQERVTLLDLMIAKITSDEPLTKDDIPVFLRHAELIASTFVDQCKTVLKLASEEPPDDEEALATIRLLDVLCEMTVNTELLGYLQVFPGLLERVIDLLRVIHVAGKETTNIFSNCGCVRAEGDISNVANGFKSHLIRLIGNLCYKNKDNQDKVNELDGIPLILDNCNISDSNPFLTQWVIYAIRNLTEDNSQNQDLIAKMEEQGLADASLLKKVGFEVEKKGEKLILKSTRDTPKP
binding [6]: binds

B2: FLAG-Ataxin-10 (protein, UniProt Q9UBB4 1-475)
chain: MAAPRPPPARLSGVMVPAPIQDLEALRALTALFKEQRNRETAPRTIFQRVLDILKKSSHAVELACRDPSQVENLASSLQLITECFRCLRNACIECSVNQNSIRNLDTIGVAVDLILLFRELRVEQESLLTAFRCGLQFLGNIASRNEDSQSIVWVHAFPELFLSCLNHPDKKIVAYSSMILFTSLNHERMKELEENLNIAIDVIDAYQKHPESEWPFLIITDLFLKSPELVQAMFPKLNNQERVTLLDLMIAKITSDEPLTKDDIPVFLRHAELIASTFVDQCKTVLKLASEEPPDDEEALATIRLLDVLCEMTVNTELLGYLQVFPGLLERVIDLLRVIHVAGKETTNIFSNCGCVRAEGDISNVANGFKSHLIRLIGNLCYKNKDNQDKVNELDGIPLILDNCNISDSNPFLTQWVIYAIRNLTEDNSQNQDLIAKMEEQGLADASLLKKVGFEVEKKGEKLILKSTRDTPKP
binding (GST-Aurora B): binds | binding (HA-Aurora B): binds
